The target of this test is GFP-tagged HIF-1α DM^(PP/AA) (UniProt Q16665). As to the kind of experiment: co-IP.

Protein sequences, listed by entry. Tags and fused reporters are not part of them. Lines headed by an entry give the natural chain unless they say otherwise; changes in a name come on top. Chains listed by the source or under a name are the forms on record and can include a tag or linker.
UniProt Q16665: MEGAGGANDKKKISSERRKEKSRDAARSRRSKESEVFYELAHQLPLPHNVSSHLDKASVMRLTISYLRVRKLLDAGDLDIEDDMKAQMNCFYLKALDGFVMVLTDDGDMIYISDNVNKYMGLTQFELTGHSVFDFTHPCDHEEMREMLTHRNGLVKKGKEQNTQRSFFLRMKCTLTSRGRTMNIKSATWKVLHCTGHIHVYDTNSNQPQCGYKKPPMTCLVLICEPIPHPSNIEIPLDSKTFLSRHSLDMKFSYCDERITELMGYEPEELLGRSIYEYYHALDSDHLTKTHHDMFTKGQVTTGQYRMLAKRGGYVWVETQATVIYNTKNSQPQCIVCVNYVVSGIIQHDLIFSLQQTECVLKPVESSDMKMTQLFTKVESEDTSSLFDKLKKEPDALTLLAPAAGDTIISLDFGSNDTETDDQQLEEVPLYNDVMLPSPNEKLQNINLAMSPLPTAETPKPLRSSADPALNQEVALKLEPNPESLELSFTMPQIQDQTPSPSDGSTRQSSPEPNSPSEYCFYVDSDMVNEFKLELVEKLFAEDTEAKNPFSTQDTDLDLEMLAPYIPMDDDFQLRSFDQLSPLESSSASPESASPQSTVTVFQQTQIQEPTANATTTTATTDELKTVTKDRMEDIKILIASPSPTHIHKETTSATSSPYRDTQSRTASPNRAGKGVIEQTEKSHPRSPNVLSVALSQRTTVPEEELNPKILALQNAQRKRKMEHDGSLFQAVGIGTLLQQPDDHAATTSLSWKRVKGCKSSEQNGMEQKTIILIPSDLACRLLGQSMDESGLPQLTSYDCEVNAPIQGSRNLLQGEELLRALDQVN
GFP-tagged HIF-1α DM^(PP/AA) (Q16665, form named): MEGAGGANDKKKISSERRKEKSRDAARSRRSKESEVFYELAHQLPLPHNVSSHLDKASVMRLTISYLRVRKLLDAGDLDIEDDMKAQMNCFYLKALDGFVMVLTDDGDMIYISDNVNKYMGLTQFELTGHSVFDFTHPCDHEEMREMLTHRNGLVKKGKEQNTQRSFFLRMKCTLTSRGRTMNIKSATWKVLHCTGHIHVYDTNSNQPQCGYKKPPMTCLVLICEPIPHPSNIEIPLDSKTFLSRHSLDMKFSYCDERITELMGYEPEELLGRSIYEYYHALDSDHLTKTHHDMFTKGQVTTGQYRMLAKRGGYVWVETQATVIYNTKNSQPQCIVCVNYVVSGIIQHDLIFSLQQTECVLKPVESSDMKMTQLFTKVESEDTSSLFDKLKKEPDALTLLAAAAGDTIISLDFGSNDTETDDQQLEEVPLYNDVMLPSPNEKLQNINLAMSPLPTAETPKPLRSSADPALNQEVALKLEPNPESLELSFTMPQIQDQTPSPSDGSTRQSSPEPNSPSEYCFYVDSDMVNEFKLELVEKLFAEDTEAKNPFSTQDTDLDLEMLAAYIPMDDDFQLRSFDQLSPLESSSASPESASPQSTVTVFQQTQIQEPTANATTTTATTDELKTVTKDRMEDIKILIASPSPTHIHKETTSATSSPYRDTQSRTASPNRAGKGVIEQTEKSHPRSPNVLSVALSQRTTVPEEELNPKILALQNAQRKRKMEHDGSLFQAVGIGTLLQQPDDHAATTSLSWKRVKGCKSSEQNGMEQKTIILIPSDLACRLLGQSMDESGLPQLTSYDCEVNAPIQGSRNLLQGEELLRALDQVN

No constants are given. Whether binding was seen depends on the method and setting. In cells and extracts the contact can be indirect. Some results given as binding are weak or reduced against the parent protein; the word gives no strength. Where a sequence is shown, tags or fusion partners need not be part of it.

B1: HA-USP29 (enzyme, UniProt Q9HBJ7 1-922)
chain: MISLKVCGFIQIWSQKTGMTKLKEALIETVQRQKEIKLVVTFKSGKFIRIFQLSNNIRSVVLRHCKKRQSHLRLTLKNNVFLFIDKLSYRDAKQLNMFLDIIHQNKSQQPMKSDDDWSVFESRNMLKEIDKTSFYSICNKPSYQKMPLFMSKSPTHVKKGILENQGGKGQNTLSSDVQTNEDILKEDNPVPNKKYKTDSLKYIQSNRKNPSSLEDLEKDRDLKLGPSFNTNCNGNPNLDETVLATQTLNAKNGLTSPLEPEHSQGDPRCNKAQVPLDSHSQQLQQGFPNLGNTCYMNAVLQSLFAIPSFADDLLTQGVPWEYIPFEALIMTLTQLLALKDFCSTKIKRELLGNVKKVISAVAEIFSGNMQNDAHEFLGQCLDQLKEDMEKLNATLNTGKECGDENSSPQMHVGSAATKVFVCPVVANFEFELQLSLICKACGHAVLKVEPNNYLSINLHQETKPLPLSIQNSLDLFFKEEELEYNCQMCKQKSCVARHTFSRLSRVLIIHLKRYSFNNAWLLVKNNEQVYIPKSLSLSSYCNESTKPPLPLSSSAPVGKCEVLEVSQEMISEINSPLTPSMKLTSESSDSLVLPVEPDKNADLQRFQRDCGDASQEQHQRDLENGSALESELVHFRDRAIGEKELPVADSLMDQGDISLPVMYEDGGKLISSPDTRLVEVHLQEVPQHPELQKYEKTNTFVEFNFDSVTESTNGFYDCKENRIPEGSQGMAEQLQQCIEESIIDEFLQQAPPPGVRKLDAQEHTEETLNQSTELRLQKADLNHLGALGSDNPGNKNILDAENTRGEAKELTRNVKMGDPLQAYRLISVVSHIGSSPNSGHYISDVYDFQKQAWFTYNDLCVSEISETKMQEARLHSGYIFFYMHNGIFEELLRKAENSRLPSTQAGVIPQGEYEGDSLYRPA
On to B1, for which the binding entry is given as “binds”.

The values are drawn from doi:10.1101/2020.02.20.957688.
